For this assay, the target named is T1, Sec24D (mouse, Min-6 insulinoma cells) (mouse (endogenous in Min-6)) (UniProt Q6NXL1).
T1 sequence: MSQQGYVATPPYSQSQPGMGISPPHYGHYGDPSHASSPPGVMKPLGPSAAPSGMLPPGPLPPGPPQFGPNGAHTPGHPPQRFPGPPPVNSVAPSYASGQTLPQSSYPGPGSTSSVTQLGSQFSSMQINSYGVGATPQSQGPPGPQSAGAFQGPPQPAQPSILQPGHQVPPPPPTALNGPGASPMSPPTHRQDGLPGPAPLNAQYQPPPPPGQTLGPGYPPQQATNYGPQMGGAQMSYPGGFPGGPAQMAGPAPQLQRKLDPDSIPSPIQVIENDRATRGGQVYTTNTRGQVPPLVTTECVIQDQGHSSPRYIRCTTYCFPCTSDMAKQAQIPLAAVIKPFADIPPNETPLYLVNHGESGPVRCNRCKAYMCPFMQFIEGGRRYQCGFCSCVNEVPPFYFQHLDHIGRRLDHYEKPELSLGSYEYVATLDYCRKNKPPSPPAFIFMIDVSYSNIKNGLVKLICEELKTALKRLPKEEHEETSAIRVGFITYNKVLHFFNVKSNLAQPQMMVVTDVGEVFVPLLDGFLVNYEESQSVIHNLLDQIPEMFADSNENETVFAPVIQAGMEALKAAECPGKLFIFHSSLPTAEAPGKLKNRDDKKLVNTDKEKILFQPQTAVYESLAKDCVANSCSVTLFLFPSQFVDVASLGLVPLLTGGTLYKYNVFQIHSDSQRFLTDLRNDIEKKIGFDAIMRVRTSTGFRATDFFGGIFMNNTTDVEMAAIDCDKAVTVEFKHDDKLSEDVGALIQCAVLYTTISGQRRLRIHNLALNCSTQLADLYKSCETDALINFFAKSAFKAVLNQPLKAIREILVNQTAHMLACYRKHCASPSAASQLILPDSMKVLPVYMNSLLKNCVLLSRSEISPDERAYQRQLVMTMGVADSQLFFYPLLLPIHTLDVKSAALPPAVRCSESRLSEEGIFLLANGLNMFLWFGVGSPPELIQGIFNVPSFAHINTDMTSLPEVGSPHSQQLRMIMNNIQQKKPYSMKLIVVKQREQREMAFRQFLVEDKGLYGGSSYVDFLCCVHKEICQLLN
The experiment in a line: co-IP; Min-6 cells lysed under non-denaturing conditions (RIPA without SDS or Thermo lysis buffer); 500 ug lysate protein, 10 ul primary antibody 1 h at room temperature, Protein G PLUS agarose 2 h; precipitate read by SDS-PAGE and immunoblot. For orientation: A western blot detects proteins with antibodies after separation by electrophoresis.

These are yes or no findings as the source states them, for the method shown. In cells and extracts the contact can be indirect. Some results given as binding are weak or reduced against the parent protein; the word gives no strength.

Take “ERp29 (ER protein of 29 kDa; mouse, Min-6 insulinoma cells) (from UniProt P57759 35-262)”: the binding result is reported as “binds”.

Source of the values: paper PMC7239452.
